# Measurements as given in patent EP0728482A2, “Use of hcp specific compounds to enhance erythropoiesis” (SMITHKLINE BEECHAM CORPORATION, priority 1995, dated 1996).
# “Also recorded” adds a separate entry of the source. At least one structure is not confirmed: it was looked up by name or label, or the drawing left a doubt.
# Assays:
# [1] = test system: human hcp SH2 domain; assay: ELISA-based SH2 domain / pY peptide binding assay, hcp SH2 domain; conditions: hcp SH2 domain versus src, lck, fyn, SH-PTP2, p85, Grb2 SH2 domains
# Protocol: The inhibitory activity of compounds at the different human SH2 domains was determined in vitro using SH2 domains expressed as fusion proteins in E. coli. The SH2 domains used herein were the human forms of the src SH2 domain, Grb2 SH2 domain, lck SH2 domain, fyn SH2 domain, SH-PTP2 SH2 domain, p85 SH2 domain and hcp SH2 domain.
# The fusion proteins containing the src, lck and hcp SH2 domains were expressed as the general sequence: DET1-DET2-spacer-ek-SH2, where DET1, DET2, spacer, ek and SH2 are as described below. DET1 ("defined epitope tag 1") (SEQ ID NO: 1) is an 11 amino acid sequence found in the Human Immunodeficiency Virus Type 1 (HIV-1) envelope protein gp120 (or gp160). Monoclonal antibodies to various epitopes of HIV-1 gp120 (or gp 160) are known in the art, see, for example U.S. Patent 5,166,050. One preferred example is monoclonal antibody 178.1 (see, e.g., Thiriart et al., J. Immunol., 143:1832-1836 (1989)), which was prepared by immunization of mice with a yeast-expressed HIV-1 gp160 molecule from strain BH10 (Ratner et al., Nature, 313:277-284 (1985)). This tag was used for detection of expression (by Western blot), for purification of the protein (by affinity chromatography), and for configuring assays in which the fusion protein was captured or immobilized using the 178.1 antibody. […]
# [2] = test system: B6D2F1 female mice; assay: murine reticulocyte assay (Hayakawa assay); format: in vivo; conditions: treated mice versus vehicle, oral gavage once a day for 7 days
# Protocol: The efficacy of hcp SH2 domain antagonist to enhance erythropoiesis is related to their ability to increase reticulocyte production in the murine reticulocyte assay (Hayakawa T, et al. Biologicals 20; 253 (1992) and Hayakawa T, et al. Biologicals 20; 243 (1992), (collectively hereinafter 'Hayakawa')).
# L-3,5-Dibromo-3'-(6-oxo-3(1H)-pyridazinylmethyl)-thyronine (Compound 2) was tested for its in vivo potency to increase reticulocyte production in the Hayakawa assay.
# To perform the experiment a total of 12 B6D2F1 female mice were used. The animals were administered Compound 2 (the compound was dissolved in water, pH 11, and administered by oral gavage) once a day for 7 days. At the end of the treatment period blood was collected from the animals and reticulocyte count was determined by known methods. (Hayakawa)
compound,measurement,setting,value
"N[C@@H](Cc1cc(Br)c(Oc2ccc(O)c(Cc3ccc(=O)[nH]n3)c2)c(Br)c1)C(=O)O [Compound 2, L-3,5-Dibromo-3'-(6-oxo-3(1H)-pyridazinylmethyl)-thyronine]",binding affinities/inhibitory concentrations at the hcp SH2 domain than at other SH2 domains,[1],greater than fifty-fold higher; also recorded: greater than one hundred-fold higher
same,reticulocyte count (result in words),[2],significant increase in reticulocyte count
